Data published in PubChem BioAssay AID504444 (National Center for Advancing Translational Sciences (NCATS), 2011).
“And” between values parts separate entries of the source, which are not always exact repeats. Identical values can stand only once. Hit rate of the full screen: of about 360,000 compounds, about 7,500 (2.1%) were called active. This list was built around the results that the source calls inconclusive (neither active nor inactive); the mix of calls is not that of the screen. Calls come from the whole dose curve; as a rule, active = well fitted inhibition curve with a large enough effect; inconclusive = small, poorly fitted or top-dose-only effect, or effect the other way; inactive = flat fitted curve, though single readings scatter. A potency beside an inconclusive call is a rough fit, not a confirmed value.

assay: Nrf2 qHTS screen for inhibitors; conditions: A549 ARE-Fluc reporter, luciferase luminescence, 18-24 h; activity change, negative = inhibition: at 46 µM (top of the series); note: nearly all actives have a fitted effect of over 60% in size
Summary of the method: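 In this cell-based qHTS, ARE-driven firefly luciferase in A549 cells reports Nrf2 activity; the luminescent signal after BugLite lysis is the measured value, with a prior CellTiter-Fluor read for cell health.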
% is set by controls: 0 for no effect and ±100 for the full control effect; potency is the fitted concentration of half-maximal effect.

SMILES	Potency	activity change, negative = inhibition
CC(=O)Nc1ccc(NC(=O)c2ccc(CN3CCc4ccccc4C3)cc2)cc1	inactive	
COc1ccc(OCC(=O)N(Cc2cccc(OC)c2)C2CCS(=O)(=O)C2)cc1 (stereo not drawn)	inactive	
COc1cc(OC)c(NC(=O)c2cc(C(C)=O)n3ccccc23)cc1Cl	inconclusive: 0.0046 µM [activator, full curve, poor fit]	
Cc1ccc(S(=O)(=O)N(C)CC(=O)Nc2ccncc2)cc1	inconclusive: 25.9 µM [falling, partial curve, poor fit]	
COCCNC(=S)NNC(=O)c1cc(-c2cccnc2)nc2ccccc12	inactive	
Cc1ccc(NC2=C(NC(=O)c3ccccc3)C(=O)c3ccccc3C2=O)cc1Cl	inactive	
O=C(CCN(CCO)Cc1ccccc1)Nc1ccc(Br)cc1	inactive	
Brc1ccc(-c2noc(-c3ccccc3)n2)o1	inconclusive: 2.91 µM [activator, partial curve] and inconclusive: 13 µM [activator, partial curve]	
CN(C)CCNc1ncnc2c1cnn2-c1ccc(Cl)cc1	inconclusive: 23.1 µM [activator, single point]	
COC(=O)/C=C/c1oc2ccccc2c1C	inactive	
COc1ccc(-n2cnc3c(sc4nc(N5CCOCC5)c5c(c43)CCCC5)c2=O)cc1	inconclusive: 6.51 µM [falling, single point]	
CCCCOc1ccc(C(=O)Nc2ccc(S(=O)(=O)Nc3nc(C)cc(C)n3)cc2)cc1	inconclusive: 29.1 µM [falling, single point]	
COC(=O)CCC(=O)Nc1sc(Cc2ccccc2)c(C)c1C(N)=O	inactive	
Cc1ccc2nc(-c3ccc(Cl)c(NC(=O)c4ccc5c(c4)OCCO5)c3)oc2c1	inconclusive: 11.6 µM [activator, partial curve]	
CCN(CC)S(=O)(=O)c1cc(NS(=O)(=O)c2cccs2)ccc1C	inconclusive: 4.61 µM [falling, single point]	
CCOC(=O)C1(CCc2ccccc2)CCN(C2Cc3ccccc3C2)CC1	inconclusive: 6.51 µM [activator, single point]	
CN(C(=O)CSc1nncc2ccccc12)C1CCCCC1	inactive	
COc1cc(C)ccc1OCc1cc(C(=O)NC(C)Cn2cncn2)no1 (stereo not drawn)	inconclusive: 13 µM [activator, partial curve, poor fit]	
Cc1cc(N2CCOCC2)nc2ccc(NC(=O)CCC(=O)N3CCN(c4ccccc4F)CC3)cc12	inconclusive: 2.59 µM [activator, partial curve, poor fit]	
CCCc1ccc(OCc2ccc(C(=O)OC)o2)c(OC)c1	inconclusive: 1.16 µM [activator, full curve]	
CCCCC(=O)Nc1c2c(nn1-c1cccc(C)c1C)CS(=O)(=O)C2	inconclusive: 11.6 µM [activator, partial curve, poor fit]	
CSc1nccc(NC(=O)c2cccc(Br)c2)n1	inconclusive: 16.4 µM [falling, single point]	
CC1=C(C(=O)Nc2cccnc2)C(c2ccccc2)n2nc(SCc3ccccc3)nc2N1 (stereo not drawn)		inactive: 1.57% [at 9.27 µM]

SMILES	Potency	activity change, negative = inhibition
CCCc1nc2ccccc2c(=O)n1/N=C/c1ccc(O)cc1O	inactive	
CSc1nc2ccc(NS(=O)(=O)c3ccc(CNC(C)=O)cc3)cc2s1	inconclusive: 32.6 µM [falling, single point]	
CCOC(=O)c1cnc2c(OC)cccc2c1N1CCN(c2ccccc2OC)CC1	inconclusive: 25.9 µM [falling, single point]	
O=C(Nc1ccnn1C1CCN(C(=O)Cc2ccccc2F)CC1)C1CC1	inconclusive: 6.51 µM [falling, single point]	
Cc1ccc(C(=O)NCCCN2CCOCC2)cc1	inconclusive: 14.6 µM [activator, partial curve]	
COc1ccc(S(=O)(=O)NCc2cccnc2)cc1NC(=O)c1ccc(C)cc1	inactive	
O=C(O)c1cccc2c1-c1ccccc1/C2=N\Nc1ccccc1	inconclusive: 20.6 µM [activator, partial curve]	
COc1cc(F)cc(-c2ccc3c(c2)c(C#Cc2ccsc2)c(-c2cc(OC)cc(OC)c2)n3C)c1	inconclusive: 29.1 µM [activator, single point]	
CCOC(=O)N1CCN(C(=O)CSc2ccccc2)CC1	inconclusive: 18.4 µM [activator, single point]	
Cc1ccc(C)c(NC(=O)CN2C(=O)C3(SCC(=O)N3c3ccc(C)c(C)c3)c3ccccc32)c1 (stereo not drawn)	inactive	
CC(Nc1nc(-c2ccc(Cl)cc2)cs1)c1nc2cc(Cl)c(N3CCCCC3)cc2n1CCOCCO (stereo not drawn)	inconclusive: 32.6 µM [falling, single point]	
Cc1cccc(N2CCN(C(=O)Cn3ccc4ccccc4c3=O)CC2)c1C	active: 17.8 µM	
CCCCC1CCC(C(=O)OC(C)C(=O)Nc2ccc(NC(C)=O)cc2)CC1 (stereo not drawn)	inactive	
Cc1ccc2nc(-c3ccc(NC(=O)COC(=O)c4ccco4)cc3)sc2c1	active: 6.51 µM	
COc1ccc(Br)cc1Cn1nnc(C(=O)Nc2ccc(C)cc2C)c1N	active: 16.4 µM	
CC(=O)COc1ccc2cc(-c3ccccc3)c(=O)oc2c1	inconclusive: 3.26 µM [activator, partial curve]	
Nc1nc(NCCCN2CCOCC2)nc(Nc2ccccc2F)c1[N+](=O)[O-]	inconclusive: 29.1 µM [activator, single point]	
Cc1nc(Nc2ccc(Cl)c(Cl)c2)sc1C(=O)Nc1ccccc1	inconclusive: 29.1 µM [falling, single point]	
Cc1ccc(-c2noc(CCCc3ccccc3)n2)cc1	inconclusive: 23.1 µM [activator, single point]	
CCc1ccc(NC(=O)C[n+]2cc(-c3ccc(C)cc3)n3c2CCC3)cc1	inactive	
CC1(C)OC(=O)C(=CNNc2c(Cl)cc(Cl)cc2Cl)C(=O)O1	inconclusive: 29.1 µM [activator, single point]	
Cc1ccc(/C=N/NC(=O)c2ccco2)cc1	inconclusive: 4.11 µM [activator, full curve, poor fit]	
O=C(NC(=S)Nc1ccccc1N1CCCC1)c1cccs1	inconclusive: 23.1 µM [falling, partial curve, poor fit]	

SMILES	Potency	activity change, negative = inhibition
O=C(Cc1nc2ccccc2[nH]1)c1cccc([N+](=O)[O-])c1	inconclusive: 23.1 µM [falling, single point]	
Oc1[nH]c2ccccc2c1N=Nc1c(F)c(F)c(F)c(F)c1F	inconclusive: 23.1 µM [activator, partial curve, poor fit]	
COCCNC(=O)c1ccc2c(=O)n(CCOC)c(=O)[nH]c2c1	inactive	
COCCNC(=O)/C(C#N)=C/c1cccc(OCc2ccccc2)c1	inconclusive: 3.66 µM [activator, partial curve, poor fit]	
COC(=O)c1c(NC(NC(=O)c2ccccc2)(C(F)(F)F)C(F)(F)F)sc2c1CCN(C)C2	inconclusive: 23.1 µM [falling, single point]	
COc1ccc(N(CC(=O)Nc2ccc3c(c2)OCCO3)S(C)(=O)=O)c(OC)c1	inconclusive: 29.1 µM [activator, single point]	
Cc1cc(S(=O)(=O)N2CCN(c3ccc(F)cc3)CC2)c(C)s1	inconclusive: 18.4 µM [falling, single point]	
O=C(Nc1cccc2c1CCCC2)c1cc([N+](=O)[O-])ccc1Cl	inconclusive: 23.1 µM [falling, single point]	
COc1ccccc1NC(=S)NN=C(C)c1ccccn1	active: 1.16 µM	
Cc1ccc(C(=O)N[C@@H](C)CN2C3=NC[C@H](C(C)C)N3C[C@H]2Cc2ccc(O)cc2)cc1Br	inactive	
COc1nn(C(C)C(=O)N2N=C(C(F)F)CC2(O)C(F)F)cc1[N+](=O)[O-] (stereo not drawn)	inconclusive: 1.03 µM [falling, full curve, poor fit]	
Cn1ccc2cc(S(=O)(=O)N3CCN(S(=O)(=O)c4c(F)cccc4F)CC3)ccc21	inconclusive: 29.1 µM [falling, single point]	
CCOC(=O)c1ccc(NC(=S)N2CCC(C(N)=O)(N3CCCCC3)CC2)cc1	inconclusive: 18.4 µM [falling, single point]	
CCOC(=O)c1scc(-c2ccccc2)c1S(=O)(=O)Nc1ccc(N(C)C)cc1	inconclusive: 20.6 µM [falling, single point]	
CC(C)CN(CCCNC(=O)c1cc(-c2ccc(Br)s2)nc2ccccc12)CC(C)C	inactive	
O=C(/C=C/c1ccccc1)NC1CCSC1=O (stereo not drawn)	inconclusive: 20.6 µM [activator, partial curve, poor fit]	
CCN(CC)c1ccc(-n2c(C)c(C(C)=O)c(C(C)=O)c2C)cc1	inconclusive: 20.6 µM [falling, single point]	
O=C(N/N=C/c1cccnc1)c1ccc(NC(=O)c2ccc(F)cc2)cc1	inactive	
Cc1cccc(NC(=O)CSc2nnc(-c3ccco3)c(-c3ccco3)n2)c1	inconclusive: 29.1 µM [falling, single point]	
CC(C)Cn1c(N)c(C(=O)CSc2ccc3c(c2)OCCO3)c(=O)n(C)c1=O	active: 0.651 µM	
CCOC(=O)c1c(NC(=O)c2cccs2)sc2c1CCC2	inactive	
Cc1ccc(OCC(=O)Nc2ccc(-c3nc4ncccc4o3)cc2)c(C)c1	inconclusive: 18.4 µM [falling, single point]	
